Laboratory results from publication PMC3006207, “Phosphorylation-Dependent Protein Interaction with Trypanosoma brucei 14-3-3 Proteins that Display Atypical Target Recognition” (PLoS ONE, 2010).
These are yes or no findings as the source states them, for the method shown. For part of these data: In cells and extracts the contact can be indirect.

How the values were obtained:
[1] = target: T1, c-Raf-derived phosphopeptide pSRaf259 (biotin-…pSTPN) (human); test: SPR; both purified
T1 sequence (peptide, biotin on the N-terminus; phosphoserine at 259Ser (residue 11 of the peptide)): MAGGGRQRSTSTPN

[2] = target: T1, c-Raf-derived phosphopeptide pSRaf259 (biotin-…pSTPN) (human); test: pull-down; only the target purified
[3] = target: T2, pRaf259 (biotin-…), 259Ser unphosphorylated (human); test: pull-down; only the target purified
T2 sequence (peptide, biotin on the N-terminus): MAGGGRQRSTSTPN

Substance	binding [1]	binding [2]	binding [3]
GST-14-3-3II (T. brucei 14-3-3II fused to glutathione S-transferase)	no binding (tested: 200 nM)		
endogenous T. brucei 14-3-3I		no binding	no binding
